Experimental data taken from PubChem BioAssay AID2685 (National Center for Advancing Translational Sciences (NCATS), 2010).
The other results are listed elsewhere or left out. The main result of the screen is listed elsewhere. These columns were measured beside it and carry no call. Compounds called inactive in the main read-out are mostly missing here. The note in brackets gives the kind of curve behind each potency; many fits are weak.

Assay: qHTS Assay for Lipid Storage Modulators in Drosophila S3 Cells;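 as to cell number change: cells counted by Cell Tracker Red CMTPX staining in the red channel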
Settings: BODIPY lipid droplet fluorescence, 18-24 h; for cell number change: measured here: cell count max response, cells fed with added oleic acid
Method in brief: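 Drosophila S3 cells loaded with oleic acid (400 uM, as added) and compounds at several concentrations; lipid droplets imaged by 488-nm laser-scanning cytometry, 500–530 nm intensity and object ratio to cell channel. Percent activity normalized to 20 uM Triacsin C.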

[1] = measured here: lipid fluorescence (Fed channel) AC50, cells fed with added oleic acid
[2] = measured here: cell number channel AC50, cells fed with added oleic acid

| Structure (SMILES) | cell number change | AC50 [1] | AC50 [2] |
| --- | --- | --- | --- |
| COc1ccc(Cl)cc1NC(=O)CCS(=O)(=O)c1cc2c(cc1C)NC(=O)CO2 | -1.44% | 0.651 µM [falling, full curve] | – |
| CCCCn1c(N)c(N(CCC(C)C)C(=O)C2CCCO2)c(=O)[nH]c1=O (stereo not drawn) | 8.5% | – | – |
| COc1ccc(C2=NS(=O)(=O)N(C)C(C(=O)N(C)Cc3ccccc3)=C2)cc1 | -1.41% | 29.1 µM [falling, single point] | – |
| CC(=O)N1N=C(c2ccc(C)cc2)OC1c1cccnc1 (stereo not drawn) | -22.1% | – | – |
| CCN(CC(=O)NCc1ccc(F)cc1)C(=O)C1CCN(C(=O)Nc2ccccc2)CC1 | -29.3% | – | – |
| CCCCCCCC(=O)OC(CN1CCCCCC1)CN1CCCC1=O (stereo not drawn) | 1.28% | – | – |
| COc1cc(S(=O)(=O)Nc2ccc3nc(C)sc3c2)ccc1NC(C)=O | -34% | 6.51 µM [falling, partial curve] | 32.6 µM [falling, single point] |
| CCCCOc1ccc(/C=N/NC(=S)Nc2cccc(C)c2C)cc1 | -2.56% | – | – |
| O=S(=O)(NCc1cccs1)c1ccc(Cl)s1 | -8.29% | 29.1 µM [rising, single point] | – |
| COc1cc(Br)cc(/C=C/c2ccc3cccc(O)c3n2)c1O | -18.9% | – | – |
| CC(=O)N1N=C(c2cccc(Cl)c2)OC1c1cccc([N+](=O)[O-])c1 (stereo not drawn) | 14.6% | – | – |
| COc1ccccc1C1(O)CC2CCC(C1)N2S(=O)(=O)c1ccc(C(C)=O)cc1 (stereo not drawn) | -3.32% | – | 0.00517 µM [rising, full curve, poor fit] |
| Cc1cc(NC(=O)CCc2ccccc2)c([N+](=O)[O-])cc1C | 29.1% | 1.3 µM [rising, full curve] | – |
| O=C1CC(C(=O)Nc2ccccc2)N=C(N2CCOCC2)N1 (stereo not drawn) | -4.05% | 13 µM [falling, single point] | – |
| COc1ccccc1OCCNC(=O)C1CC(=O)N(c2ccccc2OC)C1 (stereo not drawn) | -29.3% | – | 0.0326 µM [falling, full curve, poor fit] |
| O=C(CCn1c(=S)oc2ccccc21)Nc1cccc(O)c1 | 1.53% | – | 0.731 µM [falling, single point] |
| CCN1CCN(C(=S)Nc2ccccc2Cl)CC1 | -34.7% | 0.146 µM [falling, full curve] | – |
| COc1ccccc1NC(=O)C(C)OC(=O)c1cc2ccccc2[nH]1 (stereo not drawn) | -10.3% | – | – |
| Cc1cc(O)c(C)c(O)c1/C=N/NC(=O)c1cccnc1 | -1.55% | 29.1 µM [falling, single point] | – |
| COc1ccc(N2CCN(C(=O)c3ccccc3N(C)S(=O)(=O)c3ccc(C)cc3)CC2)cc1 | 6.23% | 6.51 µM [rising, single point] | – |
| O=C(CSc1nnc(Cc2ccccc2)n1Cc1ccccc1)NCc1ccco1 | -31.9% | 20.6 µM [falling, single point] | 29.1 µM [falling, single point] |

By substructure, those above with two or more sulfur atoms.

| Structure (SMILES) | cell number change | AC50 [1] | AC50 [2] |
| --- | --- | --- | --- |
| COc1cc(S(=O)(=O)Nc2ccc3nc(C)sc3c2)ccc1NC(C)=O | -34% | 6.51 µM [falling, partial curve] | 32.6 µM [falling, single point] |
| O=S(=O)(NCc1cccs1)c1ccc(Cl)s1 | -8.29% | 29.1 µM [rising, single point] | – |

Next part.

| Structure (SMILES) | cell number change | AC50 [1] | AC50 [2] |
| --- | --- | --- | --- |
| CC12CCC(=O)N1c1c(sc3nc(N4CCOCC4)c4c(c13)CCCC4)C(=O)N2 (stereo not drawn) | -29.5% | 20.6 µM [falling, single point] | – |
| CC1=C(C#N)C(NC(=O)C2CC2)(C(F)(F)F)C(=O)N1 (stereo not drawn) | -5.61% | 14.6 µM [falling, partial curve, poor fit] | – |
| Cc1ccc(-c2cc(C(=O)O)c3sc(N4CCCCC4)nc3n2)cc1 | -53.3% | – | 18.4 µM [falling, single point] |
| Cc1cc(Br)ccc1OCCNCc1ccccc1 | -47.1% | 0.731 µM [falling, full curve] | 0.731 µM [falling, full curve] |
| CS(=O)(=O)N1CCN(c2ccccc2NC(=O)CSc2ccc(Cl)cc2)CC1 | -24.7% | 0.92 µM [rising, partial curve] | – |
| O=C(NCC1(N2CCCCC2)CCCCC1)c1ccc(NS(=O)(=O)c2ccccc2)cc1 | -56.2% | 1.16 µM [falling, partial curve, poor fit] | 0.291 µM [falling, full curve, poor fit] |
| O=[N+]([O-])c1ccc(NC(=S)NCCc2ccc(F)cc2)cc1 | -60.6% | 14.6 µM [falling, partial curve] | 16.4 µM [falling, partial curve] |
| Cc1cc(Cl)ccc1NC(=O)COC(=O)c1c(C)noc1C | -15.5% | 0.116 µM [rising, full curve, poor fit] | – |
| Cc1ccc(NC(=O)c2ccc3c(=O)n4c(nc3c2)CCC4)cc1F | -13.8% | 0.0366 µM [falling, full curve, poor fit] | – |
| Cc1ccc2c(C)c(C(=O)Nc3nnc(C)s3)oc2c1 | -3.84% | 0.164 µM [falling, full curve, poor fit] | – |
| Cc1cc2cc(CCNS(=O)(=O)c3ccc(F)cc3)c(=O)[nH]c2cc1C | 12.1% | 16.4 µM [rising, single point] | – |
| O=C1CN(C(=O)c2ccco2)C(c2ccccc2)c2cc(Cl)ccc2N1 (stereo not drawn) | 62.5% | – | 7.31 µM [rising, partial curve] |
| Cc1cc(C)c(CNC(=O)c2cc(C3CC3)nc3c2cnn3C(C)C)c(=O)[nH]1 | 34.5% | 32.6 µM [rising, partial curve] | 18.4 µM [rising, single point] |
| Cc1ccccc1NCC(=O)c1ccc(Br)cc1 | 3.24% | – | – |
| C#CC(C)(C)NC(=O)CSc1nc2c(c(=O)n(C)c(=O)n2C)n1CCCC | 30.5% | 11.6 µM [rising, partial curve, poor fit] | 9.2 µM [rising, partial curve, poor fit] |
| O=C(O)CCCN1C(=O)C2C3c4ccccc4C(c4ccccc43)[C@@H]2C1=O (stereo partly drawn) | -23.7% | 29.1 µM [falling, single point] | – |
| O=C(O)c1cc2c(cc1NC(=O)C1CCCC1)OCCO2 | -0.478% | 0.82 µM [rising, partial curve] | – |
| OC(c1cccnc1)c1cccs1 (stereo not drawn) | 2.22% | – | – |
| COc1ccc(CCNC(=O)COC(=O)CSc2ccc([N+](=O)[O-])cc2)cc1OC | 11.2% | – | – |
| O=C(Nc1cccnc1)C1CC(c2ccccc2O)=NO1 (stereo not drawn) | – | 1.3 µM [falling, full curve] | 0.231 µM [falling, full curve, poor fit] |
